Experimental data reported in PubChem BioAssay AID758 (NMMLSC, 2007).
Out of some 190,000 compounds screened, about 110 (0.058%) were called active. This list was built around the results that the source calls inconclusive (neither active nor inactive); the mix of calls is not that of the screen.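 How the source made its calls: active means fluorescent GTP binding to Rab7 beads changed by at least 20 points from the 100% baseline, either direction, mostly lower; inconclusive means compound itself probably fluorescent, or too few beads counted; inactive means the rest.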

What follows are compounds tested on Rab7 GTPase wild type (dog), Bodipy-FL-GTP binding (assay: modulators of GTP binding to Rab7, primary screen, biochemical, wildtype, multiplex bead flow cytometry (AID 758;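 further: median green fluorescence of bound Bodipy-FL-GTP per Rab7 bead population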)). Conditions: GST-Rab7 beads, fluorescent GTP binding, at 10 µM, actives lie on both sides, untreated = 100%, excess cold GTP = 0%.
For COc1ccc(N=C2S/C(=C\c3ccc(N4CCOCC4)o3)C(=O)N2CCc2c[nH]c3ccccc23)cc1, the GTP binding activity (percent of control) was inconclusive: 147%.
With CCN(C(=O)CSc1nnc(-c2ccncc2)n1C)C1CCS(=O)(=O)C1 (stereo unspecified) the GTP binding activity (percent of control) was inconclusive: 105%.
CCOC(=O)C1(Cc2ccccc2)CCN(Cc2ccc3cc(NC(C)=O)ccc3n2)CC1 was tested, and the GTP binding activity (percent of control) was inactive: 99%.
For CC1CN(c2nc3c(c(=O)n(Cc4ccc(Cl)c(Cl)c4)c(=O)n3C)n2C)CC(C)O1 (stereo unspecified), the GTP binding activity (percent of control) was inconclusive: 96%.
With Oc1c(Cl)cc(Cl)cc1C=Nc1ccc2c(c1)OCCO2 the GTP binding activity (percent of control) was inconclusive: 81%.
With CC(C)(CO)CNC(=O)c1ccc(OC2CCN(C(=O)C3CC3)CC2)cc1 the GTP binding activity (percent of control) was inactive: 105%.
With CC1=CC(C)(C)Nc2ccc(OC(=O)c3ccco3)cc21 the GTP binding activity (percent of control) was inconclusive: 90%.
With Cc1cccc(-c2nnnn2-c2cccc(C)c2)c1 the GTP binding activity (percent of control) was inconclusive: 94%.
For Cn1nc(-c2ccc(Cl)cc2)c2cc(C(=O)NCCN3CCOCC3)sc21, the GTP binding activity (percent of control) was inconclusive: 88%.
In the case of Cc1cc2cc(C=C(C#N)C#N)c(Cl)nc2cc1C, the GTP binding activity (percent of control) is reported as inactive: 99%.
CCOc1ccc(C(=O)Nc2ccccc2C(=O)O)cc1 was tested, and the GTP binding activity (percent of control) was inconclusive: 93%.
With COc1ccc(NS(=O)(=O)c2cc(NC(=O)c3cnccn3)ccc2OC)cc1Br the GTP binding activity (percent of control) was inactive: 92%.
In the case of Cc1ccc(C(c2nnnn2C2CCCCC2)N2CCN3CCCC3C2)cc1 (stereo unspecified), the GTP binding activity (percent of control) is reported as inactive: 104%.
In the case of Cc1ccc(-c2noc(CN3C(C)CCCC3C)n2)cc1 (stereo unspecified), the GTP binding activity (percent of control) is reported as inconclusive: 69%.
With Cc1ccc2cc3cc(C(=O)N4CCN(Cc5ccccc5)CC4)sc3nc2c1 the GTP binding activity (percent of control) was inconclusive: 163%.
For CC(Oc1ccccc1)C(=O)Nc1oc(-c2ccco2)c(-c2ccco2)c1C#N (stereo unspecified), the GTP binding activity (percent of control) was inconclusive: 94%.
With Cn1nc(-c2ccc(Cl)cc2)c2cc(C(=O)NC3CC3)sc21 the GTP binding activity (percent of control) was inconclusive: 92%.
With O=C(/C=C/c1ccccc1)NC(NC(=S)Nc1ccc(Cl)cc1)C(Cl)(Cl)Cl (stereo unspecified) the GTP binding activity (percent of control) was inconclusive: 102%.
With Cc1nnc(SCC(=O)Nc2nc(-c3ccc(F)cc3)cs2)[nH]c1=O the GTP binding activity (percent of control) was inconclusive: 86%.
For O=C(c1cc(-c2ccccc2)n[nH]1)N1CCc2c([nH]c3ccccc23)C1c1ccccn1 (stereo unspecified), the GTP binding activity (percent of control) was inactive: 104%.
In the case of N#C/C(=C(/O)CN1CCOCC1)c1nc(-c2ccccc2)cs1, the GTP binding activity (percent of control) is reported as inconclusive: 106%.
In the case of Cc1ccc[n+](CC(=O)Nc2cccc([N+](=O)[O-])c2)c1, the GTP binding activity (percent of control) is reported as inconclusive: 94%.
With CCNS(=O)(=O)c1ccc(CCC(=O)NCc2ccc(C)cc2)cc1 the GTP binding activity (percent of control) was inconclusive: 97%.
With COc1ccc(Cc2c(O)nc(SCC(=O)NC(C)(C)C)[nH]c2=O)cc1 the GTP binding activity (percent of control) was inactive: 106%.
CCOC(=O)c1c(C)[nH]c2cc(Br)c(O)cc12 was tested, and the GTP binding activity (percent of control) was inconclusive: 92%.
For CCCc1nc(C)c(-c2ccc(OC)c(OC)c2)c(=O)[nH]1, the GTP binding activity (percent of control) was inconclusive: 103%.
CC1CCc2cc(F)ccc2N1S(=O)(=O)c1ccc(Cl)nc1 (stereo unspecified) was tested, and the GTP binding activity (percent of control) was inconclusive: 101%.
With Cc1cc(C)n2nc(SCC(=O)Nc3ccccc3)nc2n1 the GTP binding activity (percent of control) was inactive: 96%.
With O=C(C[n+]1cccc(CO)c1)Nc1nc2ccccc2s1 the GTP binding activity (percent of control) was inactive: 99%.
For Cc1cccc(N=Cc2[nH]c3ccc(Br)c(Cl)c3c2O)c1, the GTP binding activity (percent of control) was inconclusive: 163%.
With COc1ccc(/C=N\NC(=O)c2cc(O)c(O)c(O)c2)cc1CN1CCN(c2ccc(F)cc2)CC1 the GTP binding activity (percent of control) was inconclusive: 94%.
For COC(=O)C1=C(C)N(c2ccccc2)C(=S)NC1c1ccccc1C(F)(F)F (stereo unspecified), the GTP binding activity (percent of control) was inconclusive: 95%.
With C#CC1(NC(=O)NC(C)C)CCCCC1 the GTP binding activity (percent of control) was inactive: 106%.
With O=C(CN1CCN(Cc2ccccc2)CC1)N/N=C/c1c[nH]c2ccccc12 the GTP binding activity (percent of control) was inactive: 102%.
For Nc1cccnc1Sc1cc(Cl)c(Cl)cc1Cl, the GTP binding activity (percent of control) was inconclusive: 90%.
CCOc1ccc(CC(=O)NNC(=S)Nc2ccccc2)cc1Br was tested, and the GTP binding activity (percent of control) was inconclusive: 97%.
With c1ccc(Cc2cc[n+](Cc3ccccc3)cc2)cc1 the GTP binding activity (percent of control) was inactive: 106%.
With COc1ccc(N2C(=O)C3NN=C(C(=O)OCc4ccccc4)C3C2=O)cc1 (stereo unspecified) the GTP binding activity (percent of control) was inconclusive: 95%.
Cc1oc(-c2ccccc2Cl)nc1CN1CCCN(C(=O)c2ccco2)CC1 was tested, and the GTP binding activity (percent of control) was inconclusive: 95%.
O=C(COC(=O)c1n[nH]c2ccccc12)NCc1ccccc1 was tested, and the GTP binding activity (percent of control) was inconclusive: 100%.
COc1ccc(CNC(=O)CN(Cc2ccc(OC)cc2)C(=O)c2csnn2)cc1 was tested, and the GTP binding activity (percent of control) was inactive: 102%.
With CCN(CC(=O)Nc1c(F)cccc1F)C(=O)COc1ccc2c(C)cc(=O)oc2c1 the GTP binding activity (percent of control) was inactive: 103%.
In the case of OCCNc1nc(SCc2ccccc2)nc2sc3c(c12)CCC3, the GTP binding activity (percent of control) is reported as inactive: 99%.
O=c1/c(=C/c2ccc(O)c([N+](=O)[O-])c2)sc2nc3ccccc3n12 was tested, and the GTP binding activity (percent of control) was inconclusive: 91%.
COc1ccc2c(C)nc(N/C(N)=N/S(=O)(=O)c3ccc(C)cc3)nc2c1 was tested, and the GTP binding activity (percent of control) was inactive: 95%.
CCCCN(C(=S)NC(=O)c1ccccc1)c1c(N)n(Cc2ccccc2)c(=O)[nH]c1=O was tested, and the GTP binding activity (percent of control) was inconclusive: 96%.
In the case of CC1CC(C)CN(CC(O)COc2ccc3c(c2)CCC3)C1 (stereo unspecified), the GTP binding activity (percent of control) is reported as inconclusive: 99%.
For CC(C)OC(=O)NCCOC(=O)Nc1cccc(Cl)c1, the GTP binding activity (percent of control) was inconclusive: 103%.
With CN(Cc1ccccc1)C(=O)Cn1c(=O)oc2cc(S(=O)(=O)NCc3ccccc3)ccc21 the GTP binding activity (percent of control) was inconclusive: 100%.
CC1CCCN(CCCNC(=O)CCn2nc(-c3ccccc3)ccc2=O)C1 (stereo unspecified) was tested, and the GTP binding activity (percent of control) was inconclusive: 105%.
In the case of Cc1ccccc1C(=O)Nc1ccc2c(C#N)c3nc4ccccc4nc3n2c1, the GTP binding activity (percent of control) is reported as inactive: 89%.
CCOc1cc(C)c(S(=O)(=O)Nc2ccc3cn[nH]c3c2)cc1C was tested, and the GTP binding activity (percent of control) was inconclusive: 107%.
With CC(=O)Nc1ccc(C(=O)NNC(=O)c2cc([N+](=O)[O-])cc([N+](=O)[O-])c2)cc1 the GTP binding activity (percent of control) was inconclusive: 104%.
With COc1ccccc1CNC(=O)c1csc2c1CCCC2 the GTP binding activity (percent of control) was inconclusive: 94%.
With Cc1ccc(CN2CCN(CC(=O)NCc3ccc(Cl)cc3)C2=O)cc1 the GTP binding activity (percent of control) was inconclusive: 100%.
C[C@@H]1C[C@H](O)c2cc(Cl)ccc2N1 was tested, and the GTP binding activity (percent of control) was inconclusive: 102%.
In the case of O=c1nc2n(c3c1oc1ccccc13)Cc1ccccc1-2, the GTP binding activity (percent of control) is reported as inconclusive: 103%.
With COc1ccc(S(=O)(=O)N(CCCN2CCCC2=O)Cc2cc3c(C)ccc(C)c3[nH]c2=O)cc1 the GTP binding activity (percent of control) was inconclusive: 92%.
O=C(Nc1ccc2nc(-c3cccs3)[nH]c2c1)c1cccs1 was tested, and the GTP binding activity (percent of control) was inactive: 94%.
With COCCNS(=O)(=O)c1cc(C)c(C)cc1C the GTP binding activity (percent of control) was inconclusive: 96%.
With Cn1c(=O)c2c(nc(N3CCc4ccccc4C3)n2C)n(C)c1=O the GTP binding activity (percent of control) was inactive: 85%.
CCOC(=O)C1CCN(c2cc(C)nc3cc(-c4cccc(F)c4)nn23)CC1 was tested, and the GTP binding activity (percent of control) was inconclusive: 87%.
For O=C(Nn1cnc2ccccc2c1=O)c1ccc(F)cc1Cl, the GTP binding activity (percent of control) was inconclusive: 93%.
With CN1c2ccccc2C(C)(C)C12CC(c1ccc(S(=O)(=O)N3CCCCC3)cc1)=NO2 (stereo unspecified) the GTP binding activity (percent of control) was inconclusive: 99%.
O=C(c1ccccc1NS(=O)(=O)c1cccc2cccnc12)N1CCOCC1 was tested, and the GTP binding activity (percent of control) was inactive: 97%.
In the case of CC(NC(=O)C(=O)N/N=C/c1ccccc1)c1ccccc1 (stereo unspecified), the GTP binding activity (percent of control) is reported as inconclusive: 104%.
Cc1cc2nc3c(=O)n(C4CCCCC4)c(=O)[nH]c3nc2cc1N was tested, and the GTP binding activity (percent of control) was inactive: 93%.
With CC1CC(C)CN(CCCNC(=O)Cc2c(C(=O)O)[nH]c3ccccc23)C1 (stereo unspecified) the GTP binding activity (percent of control) was inconclusive: 104%.
In the case of COC(=O)CC1C(=O)NCCN1Cc1cn(-c2ccc(C)cc2)nc1-c1cccc(C)c1 (stereo unspecified), the GTP binding activity (percent of control) is reported as inactive: 93%.
With COCCCNC(=S)NCCNc1nc2c(C)c(C)ccc2cc1C#N the GTP binding activity (percent of control) was inactive: 95%.
CC(=O)Oc1ccc2c(c1)cc(C)n2C was tested, and the GTP binding activity (percent of control) was inactive: 98%.
COc1ccccc1C(C)NCC(=O)NCC(=O)Nc1ccc(F)c(F)c1F (stereo unspecified) was tested, and the GTP binding activity (percent of control) was inconclusive: 97%.
CC(NC(=O)COC(=O)CSCc1ccccc1)c1ccccc1 (stereo unspecified) was tested, and the GTP binding activity (percent of control) was inconclusive: 98%.
In the case of COc1c(F)c(F)c(C(=O)O)c(Nc2ccccc2C)c1F, the GTP binding activity (percent of control) is reported as inactive: 96%.
With CN1C(=O)C2(N=c3ccccc3=N2)c2ccccc21 the GTP binding activity (percent of control) was inconclusive: 105%.
With CCN(CC)S(=O)(=O)c1cccc(C(=O)N2CCCCC2)c1 the GTP binding activity (percent of control) was inconclusive: 90%.
For CCCC1=NN2C(=N)/C(=C\c3cc(C)n(-c4cc(C)cc(C)c4)c3C)C(=O)N=C2S1, the GTP binding activity (percent of control) was inconclusive: 92%.
For Cc1ccc(-n2cc(CNC(C)Cn3cncn3)c(-c3ccc(F)cc3)n2)cc1 (stereo unspecified), the GTP binding activity (percent of control) was inactive: 100%.
Cc1ccsc1/C=C(\C#N)C(=O)NCc1ccco1 was tested, and the GTP binding activity (percent of control) was inconclusive: 101%.
With c1ccc(-c2nc3nc4ccccc4nc3n2Cc2ccco2)cc1 the GTP binding activity (percent of control) was inconclusive: 100%.
In the case of CC(=O)Nc1c(Nc2ccccc2)c2ccccc2oc1=O, the GTP binding activity (percent of control) is reported as inconclusive: 97%.
In the case of COc1ccc(C(=O)OCC(=O)c2c(N)n(C)c(=O)n(C)c2=O)cc1OC, the GTP binding activity (percent of control) is reported as inconclusive: 93%.
C=C(C)Cn1c(SCC(=O)N/N=C/c2c(O)ccc3ccccc23)nc2ccccc2c1=O was tested, and the GTP binding activity (percent of control) was inconclusive: 93%.
In the case of CC1CCN(c2ccc(N3C(=O)C4CCCCC4C3=O)cc2[N+](=O)[O-])CC1 (stereo unspecified), the GTP binding activity (percent of control) is reported as inactive: 99%.
COc1ccc(OCC(=O)NNc2c3ccccc3nc3ccccc23)cc1 was tested, and the GTP binding activity (percent of control) was inconclusive: 92%.
CCN(CC)S(=O)(=O)c1ccc(C)c(NC(=O)Cn2cnc3cc([N+](=O)[O-])ccc3c2=O)c1 was tested, and the GTP binding activity (percent of control) was inconclusive: 88%.
For O=C1C(Cc2cccc([N+](=O)[O-])c2)SC(=Nc2ccccc2)N1c1ccccc1 (stereo unspecified), the GTP binding activity (percent of control) was inactive: 101%.
With CC(Sc1ccsc1[N+](=O)[O-])C(=O)N1CCN(c2ccccn2)CC1 (stereo unspecified) the GTP binding activity (percent of control) was inconclusive: 92%.
In the case of Cc1cc(N2CCN(C(=O)c3ccco3)CC2)n2nc(-c3cccc(F)c3)cc2n1, the GTP binding activity (percent of control) is reported as inconclusive: 101%.
With Cc1[nH]c2ccccc2c1/C=C/C(=O)c1ccccc1 the GTP binding activity (percent of control) was inconclusive: 119%.
With NS(=O)(=O)c1ccc(CNC(=O)C23CC4CC(CC(C4)C2)C3)cc1 the GTP binding activity (percent of control) was inconclusive: 102%.
